Results: the supplement of paper PMC12823440, “Inhibitors supercharge kinase turnover through native proteolytic circuits” (Nature, 2025)
Where a name gives a salt, the structure may show the parent alone. Some of the results follow. Hit calls seldom repeat between salt and free forms of one compound.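 Kinases were expressed as nanoluciferase fusions in K562 cells and luminescence was read every 4 h between 2 and 18 h as percent of control, DMSO set to 100% and a positive control to 0%. A time point counts as decreased when the signal drops significantly (2 sigma). The hit call is the authors' own, does not follow from the count of time points alone, and its rule is not shown.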

Chains of the proteins cited; added tags and fusions are not shown. Lines headed by an entry give the natural chain unless they say otherwise; changes in a name come on top.
UniProt Q9UM73: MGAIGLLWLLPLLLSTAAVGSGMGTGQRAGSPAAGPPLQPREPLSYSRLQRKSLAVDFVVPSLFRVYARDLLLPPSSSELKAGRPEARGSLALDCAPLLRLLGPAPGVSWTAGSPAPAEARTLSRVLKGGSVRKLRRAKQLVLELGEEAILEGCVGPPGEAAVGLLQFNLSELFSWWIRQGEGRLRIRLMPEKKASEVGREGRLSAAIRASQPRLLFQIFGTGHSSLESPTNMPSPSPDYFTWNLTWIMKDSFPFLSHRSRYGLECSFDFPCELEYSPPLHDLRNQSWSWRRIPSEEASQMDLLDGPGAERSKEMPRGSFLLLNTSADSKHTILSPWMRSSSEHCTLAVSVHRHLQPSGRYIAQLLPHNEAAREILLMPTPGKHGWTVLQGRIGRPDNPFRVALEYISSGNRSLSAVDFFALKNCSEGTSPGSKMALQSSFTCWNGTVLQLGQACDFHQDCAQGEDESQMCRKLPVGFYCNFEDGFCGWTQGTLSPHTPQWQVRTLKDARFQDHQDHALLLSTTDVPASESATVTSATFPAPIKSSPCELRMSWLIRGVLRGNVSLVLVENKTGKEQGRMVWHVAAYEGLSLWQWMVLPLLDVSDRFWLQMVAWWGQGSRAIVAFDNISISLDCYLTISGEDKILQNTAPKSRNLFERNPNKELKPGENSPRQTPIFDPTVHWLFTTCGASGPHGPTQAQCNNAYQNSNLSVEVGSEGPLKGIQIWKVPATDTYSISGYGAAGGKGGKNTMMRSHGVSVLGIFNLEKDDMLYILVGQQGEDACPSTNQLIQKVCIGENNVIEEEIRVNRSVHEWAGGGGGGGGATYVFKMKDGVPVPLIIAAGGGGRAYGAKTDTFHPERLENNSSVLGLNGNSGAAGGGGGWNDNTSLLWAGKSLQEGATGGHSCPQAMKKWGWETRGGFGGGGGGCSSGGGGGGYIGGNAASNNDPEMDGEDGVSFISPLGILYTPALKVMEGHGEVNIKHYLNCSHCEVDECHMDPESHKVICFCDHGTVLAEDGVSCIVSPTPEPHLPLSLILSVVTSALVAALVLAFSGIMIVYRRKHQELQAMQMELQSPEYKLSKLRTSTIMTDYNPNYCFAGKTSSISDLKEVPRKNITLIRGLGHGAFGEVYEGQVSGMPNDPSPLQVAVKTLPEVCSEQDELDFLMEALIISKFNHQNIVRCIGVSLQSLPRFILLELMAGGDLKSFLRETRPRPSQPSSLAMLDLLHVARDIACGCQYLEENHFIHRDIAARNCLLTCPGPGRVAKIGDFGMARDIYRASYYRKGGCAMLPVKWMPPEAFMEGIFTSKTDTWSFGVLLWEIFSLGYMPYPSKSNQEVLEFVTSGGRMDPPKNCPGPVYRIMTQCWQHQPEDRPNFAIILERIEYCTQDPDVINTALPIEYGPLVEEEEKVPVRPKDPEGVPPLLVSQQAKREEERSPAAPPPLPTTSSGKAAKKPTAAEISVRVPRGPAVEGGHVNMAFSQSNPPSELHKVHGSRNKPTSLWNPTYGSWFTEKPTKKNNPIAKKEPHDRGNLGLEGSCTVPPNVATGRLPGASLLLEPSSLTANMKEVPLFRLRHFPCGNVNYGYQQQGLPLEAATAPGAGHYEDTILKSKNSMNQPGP
UniProt P10398: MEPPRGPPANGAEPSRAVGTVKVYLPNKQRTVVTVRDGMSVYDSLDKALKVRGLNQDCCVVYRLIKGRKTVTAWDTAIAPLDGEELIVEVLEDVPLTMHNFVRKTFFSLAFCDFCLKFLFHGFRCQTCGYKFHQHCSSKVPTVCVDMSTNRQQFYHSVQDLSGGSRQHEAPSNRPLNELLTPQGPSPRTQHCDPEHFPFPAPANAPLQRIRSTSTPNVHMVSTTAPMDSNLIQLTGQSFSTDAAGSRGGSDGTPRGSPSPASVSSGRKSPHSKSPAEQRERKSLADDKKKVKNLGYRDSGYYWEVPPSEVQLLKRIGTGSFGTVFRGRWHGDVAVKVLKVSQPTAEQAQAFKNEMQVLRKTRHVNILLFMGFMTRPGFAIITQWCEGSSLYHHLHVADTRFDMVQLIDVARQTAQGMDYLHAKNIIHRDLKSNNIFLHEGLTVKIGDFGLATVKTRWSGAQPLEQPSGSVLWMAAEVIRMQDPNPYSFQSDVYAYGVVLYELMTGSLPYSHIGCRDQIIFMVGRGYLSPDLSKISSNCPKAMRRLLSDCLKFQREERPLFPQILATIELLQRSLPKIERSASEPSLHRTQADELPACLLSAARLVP
UniProt Q9UQB9: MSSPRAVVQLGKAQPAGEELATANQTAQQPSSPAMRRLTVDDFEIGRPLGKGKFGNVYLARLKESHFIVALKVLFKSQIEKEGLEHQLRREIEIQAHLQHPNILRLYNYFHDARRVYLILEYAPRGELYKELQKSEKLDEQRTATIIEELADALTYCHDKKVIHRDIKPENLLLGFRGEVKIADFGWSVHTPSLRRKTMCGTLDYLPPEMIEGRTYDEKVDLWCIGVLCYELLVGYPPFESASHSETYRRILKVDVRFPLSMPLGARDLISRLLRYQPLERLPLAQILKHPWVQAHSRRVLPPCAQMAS
UniProt P51451: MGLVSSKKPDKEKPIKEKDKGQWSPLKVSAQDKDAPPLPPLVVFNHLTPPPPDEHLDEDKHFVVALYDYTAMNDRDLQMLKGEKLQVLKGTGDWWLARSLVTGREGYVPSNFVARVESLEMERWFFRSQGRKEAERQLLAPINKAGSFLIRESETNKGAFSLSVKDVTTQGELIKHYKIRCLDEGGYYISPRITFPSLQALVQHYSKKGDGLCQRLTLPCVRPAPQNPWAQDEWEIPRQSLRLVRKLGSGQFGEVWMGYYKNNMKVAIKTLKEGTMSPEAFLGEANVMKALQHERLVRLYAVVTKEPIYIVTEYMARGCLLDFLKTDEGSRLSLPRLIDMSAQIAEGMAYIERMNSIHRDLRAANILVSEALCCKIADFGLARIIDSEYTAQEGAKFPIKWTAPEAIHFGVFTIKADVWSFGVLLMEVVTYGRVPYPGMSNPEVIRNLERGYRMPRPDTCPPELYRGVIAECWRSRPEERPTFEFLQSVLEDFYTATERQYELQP
UniProt P15056, whole entry, looked up: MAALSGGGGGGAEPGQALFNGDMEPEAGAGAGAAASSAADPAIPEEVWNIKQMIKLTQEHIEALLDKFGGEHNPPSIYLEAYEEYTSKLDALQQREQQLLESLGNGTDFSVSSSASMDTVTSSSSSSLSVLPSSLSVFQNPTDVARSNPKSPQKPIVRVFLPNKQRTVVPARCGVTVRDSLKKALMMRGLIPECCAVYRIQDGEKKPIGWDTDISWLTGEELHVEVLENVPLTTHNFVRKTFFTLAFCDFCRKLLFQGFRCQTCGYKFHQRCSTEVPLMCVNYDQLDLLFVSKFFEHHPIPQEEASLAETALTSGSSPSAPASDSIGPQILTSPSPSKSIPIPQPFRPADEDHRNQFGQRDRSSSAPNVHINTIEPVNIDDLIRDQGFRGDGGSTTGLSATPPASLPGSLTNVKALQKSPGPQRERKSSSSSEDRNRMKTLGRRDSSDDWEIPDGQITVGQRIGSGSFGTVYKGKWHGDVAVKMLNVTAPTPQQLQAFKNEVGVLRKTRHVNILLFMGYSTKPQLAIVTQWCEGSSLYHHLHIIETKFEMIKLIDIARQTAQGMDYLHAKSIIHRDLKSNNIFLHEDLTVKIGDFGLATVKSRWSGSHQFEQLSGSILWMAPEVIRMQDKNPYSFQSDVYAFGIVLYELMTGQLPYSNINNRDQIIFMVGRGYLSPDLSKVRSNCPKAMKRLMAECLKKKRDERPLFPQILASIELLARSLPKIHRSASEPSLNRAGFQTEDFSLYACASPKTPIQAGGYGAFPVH
UniProt Q13555: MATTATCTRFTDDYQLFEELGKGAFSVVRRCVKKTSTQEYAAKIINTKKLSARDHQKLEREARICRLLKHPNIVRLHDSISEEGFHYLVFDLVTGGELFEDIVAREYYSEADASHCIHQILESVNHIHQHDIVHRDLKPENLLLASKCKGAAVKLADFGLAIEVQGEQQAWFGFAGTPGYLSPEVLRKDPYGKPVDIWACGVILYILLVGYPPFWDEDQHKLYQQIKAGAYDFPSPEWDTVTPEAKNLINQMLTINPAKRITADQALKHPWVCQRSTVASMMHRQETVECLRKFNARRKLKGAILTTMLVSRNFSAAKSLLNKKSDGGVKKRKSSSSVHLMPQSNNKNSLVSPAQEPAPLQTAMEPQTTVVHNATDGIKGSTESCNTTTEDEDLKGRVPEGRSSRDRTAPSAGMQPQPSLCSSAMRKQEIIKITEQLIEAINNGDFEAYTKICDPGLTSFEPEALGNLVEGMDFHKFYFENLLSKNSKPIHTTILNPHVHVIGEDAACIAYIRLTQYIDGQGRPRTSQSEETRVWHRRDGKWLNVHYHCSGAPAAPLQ
UniProt Q15131: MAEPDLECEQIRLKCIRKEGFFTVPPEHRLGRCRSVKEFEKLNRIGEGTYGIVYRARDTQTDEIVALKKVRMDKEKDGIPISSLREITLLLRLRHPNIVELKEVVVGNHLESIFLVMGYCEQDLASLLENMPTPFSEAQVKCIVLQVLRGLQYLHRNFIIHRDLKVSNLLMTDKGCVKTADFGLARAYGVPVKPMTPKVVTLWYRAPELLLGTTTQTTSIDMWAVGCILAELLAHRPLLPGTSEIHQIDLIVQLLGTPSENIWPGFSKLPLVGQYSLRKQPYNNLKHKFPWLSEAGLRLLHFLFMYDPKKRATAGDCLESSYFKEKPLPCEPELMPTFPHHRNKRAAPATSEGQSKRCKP
UniProt Q00526: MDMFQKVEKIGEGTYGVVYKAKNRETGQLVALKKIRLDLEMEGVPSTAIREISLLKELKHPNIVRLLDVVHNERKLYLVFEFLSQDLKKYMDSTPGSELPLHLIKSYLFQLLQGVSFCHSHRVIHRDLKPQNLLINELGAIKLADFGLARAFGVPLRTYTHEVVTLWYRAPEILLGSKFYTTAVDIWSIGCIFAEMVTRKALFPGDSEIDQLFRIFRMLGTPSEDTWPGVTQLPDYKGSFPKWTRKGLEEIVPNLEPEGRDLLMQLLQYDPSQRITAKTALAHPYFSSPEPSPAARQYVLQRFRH
UniProt Q00535, whole entry, looked up: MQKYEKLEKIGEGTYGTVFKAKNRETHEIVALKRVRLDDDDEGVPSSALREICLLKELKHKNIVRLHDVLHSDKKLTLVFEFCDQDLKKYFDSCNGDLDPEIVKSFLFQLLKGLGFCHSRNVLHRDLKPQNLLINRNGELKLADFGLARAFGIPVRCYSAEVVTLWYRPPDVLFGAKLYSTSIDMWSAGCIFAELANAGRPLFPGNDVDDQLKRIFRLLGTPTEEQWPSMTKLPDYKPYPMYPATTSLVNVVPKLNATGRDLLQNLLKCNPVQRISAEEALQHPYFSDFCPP
UniProt O96017, whole entry: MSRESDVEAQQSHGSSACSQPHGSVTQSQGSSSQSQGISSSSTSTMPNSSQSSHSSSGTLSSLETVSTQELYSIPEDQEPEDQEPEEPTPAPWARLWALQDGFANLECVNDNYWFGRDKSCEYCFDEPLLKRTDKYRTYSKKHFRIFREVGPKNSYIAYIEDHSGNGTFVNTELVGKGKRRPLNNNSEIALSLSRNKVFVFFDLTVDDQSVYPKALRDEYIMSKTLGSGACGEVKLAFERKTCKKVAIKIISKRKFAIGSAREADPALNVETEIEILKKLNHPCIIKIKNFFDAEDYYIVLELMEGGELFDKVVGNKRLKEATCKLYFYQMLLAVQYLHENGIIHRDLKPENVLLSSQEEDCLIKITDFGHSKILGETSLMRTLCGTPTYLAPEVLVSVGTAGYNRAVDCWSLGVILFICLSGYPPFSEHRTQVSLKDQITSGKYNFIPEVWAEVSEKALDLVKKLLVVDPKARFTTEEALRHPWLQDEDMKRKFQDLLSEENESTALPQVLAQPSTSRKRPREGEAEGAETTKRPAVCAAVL
UniProt P41240: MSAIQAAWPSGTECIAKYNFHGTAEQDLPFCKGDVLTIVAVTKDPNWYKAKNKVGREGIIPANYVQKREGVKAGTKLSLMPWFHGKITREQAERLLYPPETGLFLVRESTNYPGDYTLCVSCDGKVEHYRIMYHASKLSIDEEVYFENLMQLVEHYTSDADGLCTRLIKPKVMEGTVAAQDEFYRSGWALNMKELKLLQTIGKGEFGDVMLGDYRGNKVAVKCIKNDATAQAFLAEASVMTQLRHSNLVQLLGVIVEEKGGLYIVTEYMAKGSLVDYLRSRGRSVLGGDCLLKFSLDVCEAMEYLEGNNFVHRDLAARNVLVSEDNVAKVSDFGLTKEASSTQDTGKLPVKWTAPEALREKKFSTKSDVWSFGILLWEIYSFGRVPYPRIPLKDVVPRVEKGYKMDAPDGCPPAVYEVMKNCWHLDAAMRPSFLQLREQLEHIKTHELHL

Assays:
Test in all cases: number of time points (of 5) at which kinase-Nluc abundance scored as decreased, DMSO-normalised (count); higher = more persistent destabilization
Conditions in all cases: K562; 2-18 h
ALK = ALK (UniProt Q9UM73)
ARAF = ARAF (UniProt P10398)
AURKA = AURKA (UniProt O14965)
AURKB = AURKB (UniProt Q96GD4)
AURKC = AURKC (UniProt Q9UQB9)
BLK = BLK (UniProt P51451)
BMX = BMX (UniProt P51813)
BRAF = BRAF (UniProt P15056)
BRAF_V600E = system: BRAF_V600E
BTK = BTK (UniProt Q06187)
CAMK2A = CAMK2A (UniProt Q9UQM7)
CAMK2G = CAMK2G (UniProt Q13555)
CDK10 = CDK10 (UniProt Q15131)
CDK2 = CDK2 (UniProt P24941)
CDK3 = CDK3 (UniProt Q00526)
CDK5 = CDK5 (UniProt Q00535)
CDK6 = CDK6 (UniProt Q00534)
CHEK2 = CHEK2 (UniProt O96017)
CSF1R = CSF1R (UniProt P07333)
CSK = CSK (UniProt P41240)

Compound	number of time points (ALK)	number of time points (ARAF)	number of time points (AURKA)	number of time points (AURKB)	number of time points (AURKC)	number of time points (BLK)	number of time points (BMX)	number of time points (BRAF)	number of time points (BRAF_V600E)	number of time points (BTK)	number of time points (CAMK2A)	number of time points (CAMK2G)	number of time points (CDK10)	number of time points (CDK2)	number of time points (CDK3)	number of time points (CDK5)	number of time points (CDK6)	number of time points (CHEK2)	number of time points (CSF1R)	number of time points (CSK)
Cc1cc(Nc2cc(Cl)nc(Oc3ccc([N+](=O)[O-])cc3)n2)n[nH]1 [Autophinib] (2.5 µM)	0	0	0	0	0	0	2	0	0	0	0	0	0	0	0	0	0	0	0	0
CCN(CC)c1ccc2cc(C(=O)N3CCN(C(=O)C4=Cc5c(Br)cccc5S4(=O)=O)CC3)c(=O)oc2c1 (2 µM)	0	0	1	0	0	0	0	0	0	0	0	0	0	0	0	0	0	0	0	0
CC(C)CN[C@H]1CS(=O)(=O)C[C@@H]1S(=O)(=O)c1ccc(Cl)cc1 (10 µM)	2	0	0	0	0	0	1	0	2	0	0	0	0	0	0	0	0	0	0	0
N#Cc1cccc(-c2c[nH]c3ncnc(N4CCOCC4)c23)c1 (10 µM)	0	0	0	0	0	0	0	0	0	0	0	0	0	0	0	0	0	0	0	0
COc1c(NC(=O)C(=O)c2ccc(OCCN3CCOCC3)c3ccccc23)cc(C(C)(C)C)cc1NS(C)(=O)=O (2.5 µM)	0	0	0	0	0	0	0	0	0	0	0	0	0	0	0	0	0	0	0	0
COCCO[C@@H]1[C@H](O)[C@@H](CO)O[C@H]1n1cnc2c(=O)[nH]c(N)nc21 [2′-O-(2-Methoxyethyl)guanosine] (10 µM)	0	0	0	0	0	0	0	0	0	0	0	0	0	0	0	0	0	0	0	0
Cc1cc(Nc2nc(N[C@@H](C)c3ccc(F)cc3)c(C#N)cc2F)n[nH]1 (10 µM)	0	0	0	0	0	0	0	0	1	0	0	0	0	0	0	0	0	0	0	0
Nc1ncc(-c2cccc(N3CCNCC3)c2)cc1C(=O)Nc1ccncc1 [PKC-iota inhibitor 1] (10 µM)	0	0	0	0	0	0	0	0	0	0	0	0	0	0	0	0	0	0	0	0
CC(C)CN(CC(=O)N1CCN(CC(OCc2ccc3ccccc3c2)c2ccc(Cl)cc2Cl)CC1)CC(C)C (stereo not given) [LYN-1604 (dihydrochloride)] (2.5 µM)	0	0	0	0	0	0	0	0	0	0	0	0	0	0	0	0	0	0	0	0
O=C(Nc1ccc(F)cc1F)[C@H](NC(=S)Nc1cc(C(F)(F)F)cc(C(F)(F)F)c1)c1ccccc1 (2.5 µM)	0	0	0	0	0	0	0	0	0	0	0	0	0	0	0	0	0	0	0	0
COc1cc(F)c(F)c(Nc2ccc(I)cc2F)c1NS(=O)(=O)C1(C[C@H](O)CO)CC1 [Refametinib] (10 µM)	0	0	1	0	0	1	1	0	3	0	0	0	0	0	0	0	0	0	0	0
Cn1nccc1Nc1nccc(-c2cc3c(s2)C(C)(C)N(CCN2CCOCC2)C3=O)n1 (10 µM)	0	0	0	0	0	0	0	0	0	0	0	0	0	0	0	0	0	0	0	0
CC(=O)c1c(C)c2cnc(Nc3ccc(N4CCN(CCCCNC(=O)COc5cccc6c5C(=O)N(C5CCC(=O)NC5=O)C6=O)CC4)cn3)nc2n(C2CCCC2)c1=O (stereo not given) (10 µM)	0	0	0	0	0	0	0	0	0	0	0	0	0	0	0	0	0	0	0	0
Cc1noc(C)c1-c1ccc(-c2cc(C(N)=O)c(NC(N)=O)s2)c(O[C@H]2CCNC2)c1 (10 µM)	0	0	0	0	0	0	0	0	0	0	0	0	0	0	0	0	0	0	0	0
COCCOc1ccc(-c2cn(-c3ccccc3)c3nc[nH]c(=O)c23)cc1 (10 µM)	0	0	0	0	0	0	0	0	0	0	0	0	0	0	0	0	0	0	0	0
O=C(NCCCNc1nc(Nc2cccc(NC(=O)N3CCCC3)c2)ncc1I)c1cccs1 (2.5 µM)	0	0	0	0	0	0	0	0	0	0	0	0	0	0	0	0	0	0	0	0
C[C@@H](c1ccc2nccn2c1)n1nnc2ncc(-c3cnn(C)c3)nc21 [Savolitinib] (10 µM)	0	0	0	0	0	0	0	0	0	0	0	0	0	0	0	0	0	0	0	0
O=C1NC(=O)/C(=C/c2ccc3c(c2)OC(F)(F)O3)S1 (10 µM)	0	0	0	0	0	0	0	0	0	0	0	0	0	0	0	0	0	0	0	0
CC(C)CC1(O)CCN(C(=O)c2ccc(NS(=O)(=O)c3cccc4nccnc34)cc2)CC1 (10 µM)	0	0	0	0	0	0	0	0	0	0	0	0	0	0	0	0	0	0	0	0
COc1cc(C(N)=O)nc(-c2cccc(C#C[C@]3(O)CCN(C)C3=O)c2)c1 (10 µM)	0	0	0	0	0	0	0	0	0	0	0	0	0	0	0	0	0	0	0	0
Cc1ccc(Nc2cc(-c3cccc(N4C(=O)c5ccccc5C4=O)c3)ncn2)cc1NS(C)(=O)=O (10 µM)	0	0	0	0	0	0	0	0	1	0	0	0	0	0	1	0	0	0	0	0
CS(=O)(=O)c1ccc(-c2cnc(N)c(C(=O)Nc3ccccc3)n2)cc1 (10 µM)	0	0	0	0	0	0	0	0	0	0	0	0	0	0	0	0	0	0	0	0
CCn1c(=O)c(-c2ccc(-c3cncc(C)n3)cc2Cl)cc2cnc(NCCC3CCN(C)CC3)nc21 (10 µM)	0	0	0	0	0	0	0	0	0	0	0	0	0	0	0	0	0	0	0	0
COc1ccc(CC(=O)Nc2nc3c(s2)CCc2ccccc2-3)cc1OC (10 µM)	0	0	0	0	0	0	0	0	0	0	0	0	0	0	0	0	0	0	0	0
Fc1ccc(-c2nc(-c3c(F)cccc3F)[nH]c2-c2ccncc2)cc1 (10 µM)	0	0	0	0	0	0	0	0	0	0	0	0	0	0	0	0	0	0	0	0
C=CC(=O)Nc1cccc(C)c1Nc1ncc2cc(-c3c(Cl)c(OC)cc(OC)c3Cl)ccc2n1 (2.5 µM)	0	0	0	0	0	0	0	0	2	0	0	0	0	0	0	0	0	0	0	0

A different layout for part of the listing above.
Compound,number of time points (ALK),number of time points (ARAF),number of time points (AURKA),number of time points (AURKB),number of time points (AURKC),number of time points (BLK),number of time points (BMX),number of time points (BRAF),number of time points (BRAF_V600E),number of time points (BTK),number of time points (CAMK2A),number of time points (CAMK2G),number of time points (CDK10),number of time points (CDK2),number of time points (CDK3),number of time points (CDK5),number of time points (CDK6),number of time points (CHEK2),number of time points (CSF1R),number of time points (CSK)
CS(=O)(=O)c1ccc(-c2cnc(N)c(C(=O)Nc3ccccc3)n2)cc1 (10 µM),0,0,0,0,0,0,0,0,0,0,0,0,0,0,0,0,0,0,0,0
CCn1c(=O)c(-c2ccc(-c3cncc(C)n3)cc2Cl)cc2cnc(NCCC3CCN(C)CC3)nc21 (10 µM),0,0,0,0,0,0,0,0,0,0,0,0,0,0,0,0,0,0,0,0
